In publication PMC8384837 one finds binding signal (log2 enrichment (interaction score)) data, which are given here for one sequence.

Positions count from the first letter of the chain named. This is one part of the list.

What all share (conditions): yeast three-hybrid, YBZ-1, SC-Leu-His + 0.5 mM 3-AT, 4 days
Test [1] deals with T1, PUM1 PUF domain R3-APL C935A + R936P + Q939L (Homo sapiens) (UniProt Q14671).
T1 sequence: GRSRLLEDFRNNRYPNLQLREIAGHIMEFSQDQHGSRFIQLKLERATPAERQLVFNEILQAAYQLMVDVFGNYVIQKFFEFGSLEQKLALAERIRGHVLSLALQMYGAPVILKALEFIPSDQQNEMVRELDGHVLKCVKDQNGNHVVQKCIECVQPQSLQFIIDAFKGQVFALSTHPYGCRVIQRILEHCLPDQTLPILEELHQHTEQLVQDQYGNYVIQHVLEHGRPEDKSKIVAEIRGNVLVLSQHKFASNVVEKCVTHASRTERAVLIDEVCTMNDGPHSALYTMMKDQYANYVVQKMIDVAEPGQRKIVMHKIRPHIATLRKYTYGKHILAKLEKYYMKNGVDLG

Test [2] has as its target T2, PUM1 PUF domain R3-ARD C935A + Q939D (Homo sapiens) (UniProt Q14671).
T2 sequence: T1 sequence with P109R, L112D

In test [3] the target is T3, PUM1 PUF domain R3-CRH Q939H (Homo sapiens) (UniProt Q14671).
T3 sequence: T1 sequence with A108C, P109R, L112H

Test [4] addresses T4, PUM1 PUF domain R3-GFG C935G + R936F + Q939G (Homo sapiens) (UniProt Q14671).
T4 sequence: T1 sequence with A108G, P109F, L112G

The target in test [5] is T5, PUM1 PUF domain R3-GPW C935G + R936P + Q939W (Homo sapiens) (UniProt Q14671).
T5 sequence: T1 sequence with A108G, L112W

In test [6] the target is T6, PUM1 PUF domain R3-GRG C935G + Q939G (Homo sapiens) (UniProt Q14671).
T6 sequence: T1 sequence with A108G, P109R, L112G

In test [7] the target is T7, PUM1 PUF domain R3-GRH C935G + Q939H (Homo sapiens) (UniProt Q14671).
T7 sequence: T1 sequence with A108G, P109R, L112H

Test [8] addresses T8, PUM1 PUF domain R3-GWM C935G + R936W + Q939M (Homo sapiens) (UniProt Q14671).
T8 sequence: T1 sequence with A108G, P109W, L112M

Test [9] concerns the target T9, PUM1 PUF domain R3-LFL C935L + R936F + Q939L (Homo sapiens) (UniProt Q14671).
T9 sequence: T1 sequence with A108L, P109F

The target of test [10] is T10, PUM1 PUF domain R3-LRM C935L + Q939M (Homo sapiens) (UniProt Q14671).
T10 sequence: T1 sequence with A108L, P109R, L112M

The target in test [11] is T11, PUM1 PUF domain R3-NSL C935N + R936S + Q939L (Homo sapiens) (UniProt Q14671).
T11 sequence: T1 sequence with A108N, P109S

In test [12] the target is T12, PUM1 PUF domain R3-SPW C935S + R936P + Q939W (Homo sapiens) (UniProt Q14671).
T12 sequence: T1 sequence with A108S, L112W

The target of test [13] is T13, PUM1 PUF domain R3-SRG C935S + Q939G (Homo sapiens) (UniProt Q14671).
T13 sequence: T1 sequence with A108S, P109R, L112G

Test [14] deals with T14, PUM1 PUF domain R3-SSQ C935S + R936S (Homo sapiens) (UniProt Q14671).
T14 sequence: T1 sequence with A108S, P109S, L112Q

Test [15] concerns the target T15, PUM1 PUF domain R3-VRG C935V + Q939G (Homo sapiens) (UniProt Q14671).
T15 sequence: T1 sequence with A108V, P109R, L112G

The target in test [16] is T16, PUM1 PUF domain R3-VRL C935V + Q939L (Homo sapiens) (UniProt Q14671).
T16 sequence: T1 sequence with A108V, P109R

Test [17] addresses T17, PUM1 PUF domain R3-VRS C935V + Q939S (Homo sapiens) (UniProt Q14671).
T17 sequence: T1 sequence with A108V, P109R, L112S

Test [18] has as its target T18, PUM1 PUF domain R3-WCG C935W + R936C + Q939G (Homo sapiens) (UniProt Q14671).
T18 sequence: T1 sequence with A108W, P109C, L112G

The target of test [19] is T19, PUM1 PUF domain R3-YRF C935Y + Q939F (Homo sapiens) (UniProt Q14671).
T19 sequence: T1 sequence with A108Y, P109R, L112F

Test [20] has as its target T20, PUM1 PUF domain R3-YRS C935Y + Q939S (Homo sapiens) (UniProt Q14671).
T20 sequence: T1 sequence with A108Y, P109R, L112S

As for “GGCUAGAACUAGUGGAUCCCCCGGCGCCCGGCGGCUCGAGCCCGGGUAAGUGUAAUUAGUCUGCAUGCCGCCGGGCGCCAUGCCUGCAGGUCGACUCUAGAAAACAUG”, the binding signal (log2 enrichment (interaction score)) in test [1] was 0.05; in [2], 0.07; in test [3], -0.16; in test [4], -0.56; in test [5], -0.41; in test [6], -0.04. The binding signal (log2 enrichment (interaction score)) was 0.1 in [7]; -0.16 in [8]; -0.2 in test [9]; -0 in test [10]; -0.01 in [11]; -0.07 in [12]. For the same sequence, the binding signal (log2 enrichment (interaction score)) is -0.21 in test [13]; -0.16 in test [14]; -0.39 in [15]; -0.21 in test [16]; -0.06 in test [17]; -0.53 in [18]. Also, the figures for the binding signal (log2 enrichment (interaction score)) in [19] and in test [20] were 0.21 and -0, respectively.
